According to publication PMC6916335:
These are yes or no findings as the source states them, for the method shown. In cells and extracts the contact can be indirect. Some entries that bind do so weakly or less than the wild type.

Chains of the proteins cited; added tags and fusions are not shown. Residues count along the entry.
UniProt P36895, residues 24-532: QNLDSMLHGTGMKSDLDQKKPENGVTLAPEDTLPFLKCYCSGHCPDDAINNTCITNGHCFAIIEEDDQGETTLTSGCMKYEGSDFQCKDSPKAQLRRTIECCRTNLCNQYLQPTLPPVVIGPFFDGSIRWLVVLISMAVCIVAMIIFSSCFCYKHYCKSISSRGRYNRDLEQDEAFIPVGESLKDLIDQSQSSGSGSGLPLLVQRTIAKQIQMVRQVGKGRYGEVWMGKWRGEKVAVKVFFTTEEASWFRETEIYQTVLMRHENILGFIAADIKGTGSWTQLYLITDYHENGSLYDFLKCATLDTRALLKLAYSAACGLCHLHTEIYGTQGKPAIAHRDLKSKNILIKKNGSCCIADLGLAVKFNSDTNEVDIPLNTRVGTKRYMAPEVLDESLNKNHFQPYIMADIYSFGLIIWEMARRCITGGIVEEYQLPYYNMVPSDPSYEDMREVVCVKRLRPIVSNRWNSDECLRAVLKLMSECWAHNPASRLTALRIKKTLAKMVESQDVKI
UniProt P16110: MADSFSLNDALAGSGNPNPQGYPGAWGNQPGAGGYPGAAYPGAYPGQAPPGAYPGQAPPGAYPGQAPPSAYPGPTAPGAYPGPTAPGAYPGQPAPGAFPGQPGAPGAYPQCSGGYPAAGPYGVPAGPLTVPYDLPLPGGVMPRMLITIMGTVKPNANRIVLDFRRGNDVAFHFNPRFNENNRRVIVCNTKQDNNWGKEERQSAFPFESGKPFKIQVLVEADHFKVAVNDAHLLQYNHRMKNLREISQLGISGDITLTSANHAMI

Biological target: Flag‐tagged bone morphogenetic protein receptor one alpha (BMPR1α) (mouse (from the plasmid's name mBMPR1α)) (UniProt P36895)
Assay: co-IP; HEK293T cells transfected with Gal‐3, Flag‐BMPR1α and/or HA‐BMPR2, harvested 48 hr post-transfection; 200 μg protein, 1 μg monoclonal antibody (anti‐Flag, anti‐HA or anti‐Gal‐3) and protein G microbeads (μMACS), 30 min on ice; western blot

binding: binds
Substance: Galectin‐3 (from UniProt P16110 1-264)
